“Also recorded” adds a separate entry of the source. At least one peptide structure holds a part that was inferred or is arguable (an end, a ring closure or a residue). Some entries repeat one wording, which the source may state once for all of them. Ends that are not written are not given here.
How the values were obtained:
Format in all cases: in vivo
[1] = system: Meth A ascites tumour-bearing mice; experiment: TNF lethality in Meth A ascites tumour-bearing mice; conditions: for IN VIVO TNF TOXICITY METH A: 25 μg human recombinant TNF s.c., 1 mg peptide s.c., survival at 18 and 24 hours, * heightened activity
[2] = system: Meth A ascites tumour-bearing mice; experiment: LPS lethality in Meth A ascites tumour-bearing mice; conditions: 500 μg E.coli LPS, peptide s.c.; survival up to 64 hours; * heightened activity
Description: In LPS experiments polymyxin B, an LPS inhibitor, replaced MAb 47 as a positive control. The number of animals surviving was assessed at intervals up to 64 hours after LPS challenge.

[3] = system: D-galactosamine sensitized mice; experiment: TNF toxicity in D-galactosamine sensitized mice; conditions: 16 mg D-galactosamine and 2 μg human recombinant TNF i.p., peptide s.c.; survival up to 48 hours
Description: The mice were then injected subcutaneously with either test peptide, phosphate buffered saline or neutralizing anti-TN? monoclonal antibody 47.

[4] = system: malaria primed mice; experiment: TNF treatment of malaria primed mice

| Substance | IN VIVO TNF TOXICITY METH A [1] | IN VIVO LPS TOXICITY METH A [2] | IN VIVO TNF TOXICITY D-GAL [3] | other results |
| --- | --- | --- | --- | --- |
| PSDKPV [Peptide 12, PRO SER ASP LYS PRO VAL] | + (each group contains 20 animals; scored positive if 7 or more survived) |  |  |  |
| PSDKPVAHVVA [Peptide 14, PRO SER ASP LYS PRO VAL ALA HIS VAL VAL ALA] |  | + (10 animals per group scored positive if 7 or more survive) |  |  |
| PVAHVVA [Peptide 17, PRO VAL ALA HIS VAL VAL ALA] |  | + (10 animals per group scored positive if 7 or more survive) |  |  |
| RTPSAKPVAHVVA [Peptide 19, ARG THR PRO SER ALA LYS PRO VAL ALA HIS VAL VAL ALA] | + (each group contains 20 animals; scored positive if 7 or more survived) | + (10 animals per group scored positive if 7 or more survive) |  |  |
| RTPSDKPVADV [Peptide 35, ARG THR PRO SER ASP LYS PRO VAL ALA ASP VAL] | + (each group contains 20 animals; scored positive if 7 or more survived) | + (10 animals per group scored positive if 7 or more survive) |  |  |
| RTPSDKPVAHV [Peptide 7, ARG THR PRO SER ASP LYS PRO VAL ALA HIS VAL] |  | + (10 animals per group scored positive if 7 or more survive) |  |  |
| RTPSDKPVVHV [Peptide 31, ARG THR PRO SER ASP LYS PRO VAL VAL HIS VAL] | + (each group contains 20 animals; scored positive if 7 or more survived) |  | + (each group contains 10 animals: scored positive if 6 or more survive) |  |
| RTPSKDPVAHVVA [Peptide 21, ARG THR PRO SER LYS ASP PRO VAL ALA HIS VAL VAL ALA] |  | + (10 animals per group scored positive if 7 or more survive) |  |  |
| VRSSSRTPSD [Peptide 28, VAL ARG SER SER SER ARG THR PRO SER ASP] | + (each group contains 20 animals; scored positive if 7 or more survived) | + (10 animals per group scored positive if 7 or more survive) |  |  |
| VRSSSRTPSDKPVAHVVA [Peptide 1, VAL ARG SER SER SER ARG THR PRO SER ASP LYS PRO VAL ALA HIS VAL VAL ALA] | + (each group contains 20 animals; scored positive if 7 or more survived) | + (10 animals per group scored positive if 7 or more survive) | + (each group contains 10 animals: scored positive if 6 or more survive) | death in acute models of TNF lethality ([1]; FIGS. 12 & 13): prevented death; TNF-induced hypoglycaemia in malaria primed mice ([4]; TNF 7 μg ± peptide 8.3 mg iv): abrogates Thy induced hypoglycaemia; also recorded: inhibits the TNF-induced decrease in blood glucose levels; plasma reactive nitrogen intermediate (RNI) levels ([4]; TNF treated malaria primed mice, TNF 7 μg ± peptide 8.3 mg iv): induction of RNI by TNF is inhibited; also recorded: prevent high plasma RNI levels; survival / moribund state, TNFα and Peptide 1 ([4]; mice infected with malaria parasites, group of three): all survived and none were moribund |
| VRSSSRTPSDKPVAQVVA [Peptide 23, VAL ARG SER SER SER ARG THR PRO SER ASP LYS PRO VAL ALA GLN VAL VAL ALA] | + (each group contains 20 animals; scored positive if 7 or more survived) | + (10 animals per group scored positive if 7 or more survive) | + (each group contains 10 animals: scored positive if 6 or more survive) |  |
| VRSSSRTPSDKPVARVVA [Peptide 22, VAL ARG SER SER SER ARG THR PRO SER ASP LYS PRO VAL ALA ARG VAL VAL ALA] |  | + (10 animals per group scored positive if 7 or more survive) | + (each group contains 10 animals: scored positive if 6 or more survive) |  |
